In paper PMC8128204, “Development of 3-methyl/3-(morpholinomethyl)benzofuran derivatives as novel antitumor agents towards non-small cell lung cancer cells” (Journal of Enzyme Inhibition and Medicinal Chemistry, 2021):

Tested on: A549 cells
Experiment: MTT anti-proliferative assay, A549
Format: cell-based, human
Settings: mean ± SD of three experiments
Description: The antiproliferative activity of the synthesised derivatives of the 3-methylbenzofuran series (4a–d, 6a–c, 8a–c and 11) and the 3-(morpholinomethyl)benzofuran series (15a–c, 16a–b, 17a–b and 18) was evaluated against non-small cell lung carcinoma (NSCLC) A549 and NCI-H23 cell lines, following the procedures of the MTT assay. […] 1. Anti-proliferative action toward human […] cell lines […]
The two examined human non-small cell lung carcinoma cell lines (A549 and NCI-H23) have been obtained from American Type Culture Collection (ATCC). The cells were maintained in Dulbecco's modified Eagle's medium (DMEM) supplemented with 10% heat inactivated fetal calf serum (GIBCO), penicillin (100 U/ml) and streptomycin (100 µg/ml) at 37 °C in humidified atmosphere containing 5% CO2. […]
flask in 5 ml of culture medium. The anti-proliferative activity of the tested 3-methylbenzofurans (4a-d, 6a-c, 8a-c and 11) and 3-(morpholinomethyl)benzofurans (15a-c, 16a-b, 17a-b and 18) measured in vitro using the MTT assay. […]
solution in PBS (5 mg/ml) was then added to all well including no cell blank and left to incubate for 90 min. […] DMSO (100 µl/well) was added to dissolve the formazan crystals with shaking for 10 min after which the absorbance was read at 590 nm against no cell blanks on a microplate reader. […]

## CN[C@@H]1C[C@H]2O[C@@](C)([C@@H]1OC)n1c3ccccc3c3c4c(c5c6ccccc6n2c5c31)C(=O)NC4 [Staurosporine, reference compound]
48 h
  IC50: 1520 ± 50 nM
Homo sapiens, A549, 48 h
  IC50: 1500 nM
